## Screening data

Data taken from PubChem BioAssay AID1745848, deposited by NCATS (2022).

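HEK-293 cells carrying an ATXN2-luciferase reporter; luminescence signal loss after 24 h of compound exposure, with a parallel cell viability readout. Compounds were tested as a dilution series from about 0.0037 to 57 µM. The number is the fitted half-maximal inhibitory concentration (AC50); a lower value means a more potent inhibitor. Calls come from curve class and activity score: actives score 40–100, while inconclusive compounds (weak, partial, poorly fitted or single-point curves) score 1–39.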

Values are in nM. All entries here are filed as inconclusive. These entries are mostly ones the record files as inconclusive; other results of the assay are not listed here. Potencies fitted to partial, single-point or poorly fitting curves are rough. Activity scores are not listed here.

Compound | potency (nM) | curve
Cc1nc(N)nc(N)c1/C=C/C(C)(C)c1ccc(Cl)cc1 | 177.8 | inhibitor, full curve, poor fit
NC(Cc1ccc(C(F)(F)F)cc1)c1csc(Nc2ccc(C(=O)c3ccccc3)cc2)n1 (stereo not shown) | 31622 | inhibitor, single point
Cc1noc(C)c1CSCC(=O)Nc1nc(-c2ccc(F)c(F)c2)cs1 | 28183 | inhibitor, partial curve, poor fit
O=[N+]([O-])c1ccc(O)c2ncccc12 | 3981 | inhibitor, full curve, poor fit
CC(C)C[C@H](NC(=O)c1[nH]cnc1C(=O)Nc1ccc(CNC(=O)OC(C)(C)C)cc1)C(=O)OCc1ccccc1 | 3548 | inhibitor, single point
O=C(Nc1ccc2oc(=O)ccc2c1)c1ccc(-c2cccc(Cl)c2)o1 | 28183 | inhibitor, single point
CCN1CCS/C1=C\C=C\C1=[N+](CC)CCS1 | 4467 | inhibitor, partial curve, poor fit
NC(=O)c1cccc(-c2ccnc3c2CC(C(=O)Nc2cccc(C(F)(F)F)c2)O3)c1 (stereo not shown) | 2512 | inhibitor, partial curve, poor fit
Cc1c(C(=O)N/N=C/c2c(O)ccc3ccccc23)nnn1-c1nonc1N | 1122 | inhibitor, partial curve, poor fit
NNc1ncnc2sc3c(c12)CCC3 | 31622 | inhibitor, single point
CCCOc1ccc(/C=C/C(=O)Nc2ccc([N+](=O)[O-])cc2)cc1 | 2512 | inhibitor, partial curve
C/C(=N\NC(=O)CN1CCCCC1)c1ccccc1O | 2818 | inhibitor, partial curve
Cn1c2ccccc2c(=O)c2c(=O)n(C3CCCCC3)c(-c3cccs3)nc21 | 17782 | inhibitor, partial curve, poor fit
Cc1cccc(Cn2c(CN3CCN(Cc4ccccc4)CC3)nc3c2c(=O)[nH]c(=O)n3C)c1 | 31622 | inhibitor, single point
CC(C)CC(=O)NC(=S)NNC(=O)c1ccc(NC(=O)C2CCCCC2)cc1 | 1995 | inhibitor, partial curve, poor fit
Cc1nn(-c2ccccn2)c2c1C(=O)CC(C)(C)C2N=[N+]=[N-] (stereo not shown) | 3162 | inhibitor, single point
CSCC[C@H](NC(=O)OC(C)(C)C)C(=O)N/N=C/c1cccc2cccnc12 | 17782 | inhibitor, partial curve, poor fit
COc1cccc(CC2(CO)CCCN(Cc3[nH]c4ccc(C)cc4c3C)C2)c1 (stereo not shown) | 31622 | inhibitor, single point
CCOc1ccc(OCC)c(NC(=O)Nc2ccc3c(c2)N(C)C(=O)CS3)c1 | 31622 | inhibitor, single point
COc1ccc(N2CCN(c3ccnc4cc(Cl)ccc34)CC2)cc1 | 2512 | inhibitor, partial curve, poor fit
Cc1ccc(Cn2ncc3c(NN)ncnc32)cc1 | 25118 | inhibitor, partial curve, poor fit
COc1ccc(C(=O)NC(=S)NNC(=O)c2c(-c3ccccc3)noc2C)cc1OC | 14125 | inhibitor, partial curve, poor fit
CCCC(=O)NC(c1ccc(OC)cc1)c1c(O)ccc2ccccc12 (stereo not shown) | 11220 | inhibitor, partial curve, poor fit
Cc1cc2oc3cc(NCCC4CCCN4C)ccc3c(=O)c2cc1C (stereo not shown) | 39810 | inhibitor, single point
O=C(NC(c1ccccc1)c1ccc2ccccc2n1)C1CCN(CCOc2ccc(Cl)cc2Cl)CC1 (stereo not shown) | 28183 | inhibitor, partial curve, poor fit
O=C(N/N=C1\CCCc2c1[nH]c1ccc(Cl)cc21)c1ccncc1 | 7080 | inhibitor, partial curve, poor fit
O=C1C=C(NCCc2cc(Br)c(O)c(Br)c2)C(=O)c2ncccc21 | 7943 | inhibitor, full curve, poor fit
O=C(CSc1nc2ncc(Br)cc2[nH]1)Nc1ccccc1-c1ccccc1 | 25118 | inhibitor, single point
Cc1ccc(C(=O)N(CCCN(C)C)c2nc3ccc(Cl)cc3s2)cc1C | 25118 | inhibitor, partial curve, poor fit
CC(=O)c1ccc(N2CCc3ccccc3C2)c([N+](=O)[O-])c1 | 10000 | inhibitor, partial curve, poor fit
O=c1cc(N2CCN(c3ccccc3)CC2)[nH]c(=O)n1C1CCCCC1 | 4467 | inhibitor, full curve, poor fit
COc1ccccc1N(CC(=O)N/N=C/c1c(O)ccc2ccccc12)S(C)(=O)=O | 3162 | inhibitor, full curve, poor fit
O=C(CN1CCN(C(=O)c2ccc(-c3nc4ccccc4s3)o2)CC1)Nc1ccccc1Cl | 4467 | inhibitor, single point
Cc1ccc(-c2c(C#N)c(N)n3c(nc4ccccc43)c2C#N)cc1 | 17782 | inhibitor, partial curve, poor fit
CC(C)C(=O)Nc1ccc(C(=O)N/N=C/c2cc(Br)cc(Br)c2O)cc1 | 10000 | inhibitor, partial curve, poor fit
O=C(/C=C/c1ccccc1Cl)c1ccccc(=O)c1O | 17782 | inhibitor, partial curve, poor fit
CCCCn1c(N)c(S(=O)(=O)c2ccc(C)cc2)c2nc3ccccc3nc21 | 3548 | inhibitor, single point
CCCNC(=O)c1ccc2c(=O)c(O)c(-c3ccc(C)cc3)[nH]c2c1 | 28183 | inhibitor, single point
Cc1ccc(/C=C2\SC(=S)N(CCCC(=O)Nc3cc(C)on3)C2=O)cc1 | 3162 | inhibitor, partial curve
Cc1ccc(NC(=O)C2CCN(S(=O)(=O)c3ccc(N4CCCC4=O)cc3)CC2)cc1Cl | 1778 | inhibitor, partial curve, poor fit
CN(C)c1ccc2c(c1)OC(N)=C(C#N)C2c1cccc(F)c1 (stereo not shown) | 281.8 | inhibitor, full curve, poor fit
O=C(c1ccc(F)cc1F)C1CCN(c2ccc([N+](=O)[O-])cn2)CC1 | 7080 | inhibitor, partial curve

Once more, the final 4:

* Cc1ccc(/C=C2\SC(=S)N(CCCC(=O)Nc3cc(C)on3)C2=O)cc1 | potency 3162 nM (inhibitor, partial curve)
* Cc1ccc(NC(=O)C2CCN(S(=O)(=O)c3ccc(N4CCCC4=O)cc3)CC2)cc1Cl | potency 1778 nM (inhibitor, partial curve, poor fit)
* CN(C)c1ccc2c(c1)OC(N)=C(C#N)C2c1cccc(F)c1 (stereo not shown) | potency 281.8 nM (inhibitor, full curve, poor fit)
* O=C(c1ccc(F)cc1F)C1CCN(c2ccc([N+](=O)[O-])cn2)CC1 | potency 7080 nM (inhibitor, partial curve)